In US5637476:
For part of these data: Negatives hold for the conditions tested. Tags and fusion partners may be left off the protein sequences shown.

How the values were obtained:
[1] = target: T1, SfiI modification methylase (M.SfiI) (Streptomyces fimbriatus) (UniProt O52513); assay: inhibition of the protein; settings: methylation protects from SfiI cleavage; 50 mM Tris pH 7.5, 10 mM EDTA, 5 mM BME, 0.1 mM AdoMet, 37 C; protein in an extract
T1 sequence (looked up, limits assumed): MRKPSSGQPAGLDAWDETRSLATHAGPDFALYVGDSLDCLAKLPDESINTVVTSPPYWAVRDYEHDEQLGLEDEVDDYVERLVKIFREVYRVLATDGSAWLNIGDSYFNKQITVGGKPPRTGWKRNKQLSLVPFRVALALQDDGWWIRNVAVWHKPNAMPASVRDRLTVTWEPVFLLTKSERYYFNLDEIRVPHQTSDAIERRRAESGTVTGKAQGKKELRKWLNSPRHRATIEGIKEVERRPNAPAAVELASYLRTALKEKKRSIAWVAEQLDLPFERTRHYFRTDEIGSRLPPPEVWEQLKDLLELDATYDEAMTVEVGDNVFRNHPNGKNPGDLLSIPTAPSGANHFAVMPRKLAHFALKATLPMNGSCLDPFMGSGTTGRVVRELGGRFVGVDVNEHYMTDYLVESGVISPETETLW

[2] = target: T2, SfiI restriction endonuclease (Streptomyces fimbriatus) (UniProt O52512); assay: enzyme reaction in vitro; settings: purified native protein
T2 sequence (looked up, limits assumed): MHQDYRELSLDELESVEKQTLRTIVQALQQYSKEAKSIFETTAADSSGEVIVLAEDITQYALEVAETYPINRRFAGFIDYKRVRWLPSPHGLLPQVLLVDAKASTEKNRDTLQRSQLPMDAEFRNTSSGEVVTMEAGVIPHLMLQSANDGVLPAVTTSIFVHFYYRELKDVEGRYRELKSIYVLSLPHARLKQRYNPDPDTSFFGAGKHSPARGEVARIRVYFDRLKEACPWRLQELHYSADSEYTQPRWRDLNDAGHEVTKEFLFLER

GGCCGCAGCGGCC (double strand) [SfiI linker sites in plasmid pEV328-8-6]
activity on this sequence [1]: active | activity on this sequence ([2]; SfiI digestion of library reduced transformants about 10^3 fold, 10 mM MgCl2, 50 C): active

GGCCGCAGCGGCC (double strand)
activity on this sequence ([2]; SfiI methylase modified, nine plasmids carrying methylase gene resistant to SfiI, vector sites intact and cleavable after insert deletion, variant of SfiI linker sites in plasmid pEV328-8-6): not active
